Results are given in words; binding and its absence hold for the method and conditions named. Binding seen in cells or lysates may run through a third protein. Where a sequence is shown, tags or fusion partners need not be part of it.

This experiment concerns the target T1, Flag-tagged mouse GALNTL5, full length (mouse) (UniProt Q9D4M9).
T1 sequence (chain, N-glycans at the N-glycosylation sites N68, N140, N353 and N390): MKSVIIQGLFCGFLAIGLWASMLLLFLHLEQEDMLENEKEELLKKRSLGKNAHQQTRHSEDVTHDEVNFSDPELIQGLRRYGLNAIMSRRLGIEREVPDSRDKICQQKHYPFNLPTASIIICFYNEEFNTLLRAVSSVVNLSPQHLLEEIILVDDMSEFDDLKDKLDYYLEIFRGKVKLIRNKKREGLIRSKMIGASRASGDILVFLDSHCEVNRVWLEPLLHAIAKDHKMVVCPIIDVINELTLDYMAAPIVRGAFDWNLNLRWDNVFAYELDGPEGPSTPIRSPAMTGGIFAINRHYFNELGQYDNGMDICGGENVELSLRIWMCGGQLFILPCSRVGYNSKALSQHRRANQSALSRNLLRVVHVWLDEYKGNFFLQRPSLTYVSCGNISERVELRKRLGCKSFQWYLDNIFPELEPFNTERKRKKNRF
Briefly: co-IP; GC-2spd(ts) cells transiently transfected with Flag-tagged mouse GALNTL5 cDNAs, cultured overnight; IP of lysates with the DDDDK-tagged Protein Magnetic purification Kit (anti-Flag), western blot for the chaperones. For orientation: A western blot detects proteins with antibodies after separation by electrophoresis.

On to HSP70 (mouse, endogenous), for which the binding entry is given as “no binding”.

Source of the values: paper PMC11655647.
